Source: PubChem BioAssay AID2685 (National Center for Advancing Translational Sciences (NCATS), 2010)
This is one part of the list. Further columns of the screen follow, without active or inactive calls. Compounds called inactive in the main read-out are mostly missing here. The note in brackets gives the kind of curve behind each potency; many fits are weak.

Test: qHTS Assay for Lipid Storage Modulators in Drosophila S3 Cells;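 as to cell number change: cells counted by Cell Tracker Red CMTPX staining in the red channel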
Conditions: BODIPY lipid droplet fluorescence, 18-24 h; for cell number change: measured here: cell count max response, cells fed with added oleic acid
How it was run: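 Laser-scanning cytometry quantifies lipid droplet accumulation (500–530 nm total intensity; droplet/cell object ratio) in oleic acid-fed (400 uM added) Drosophila S3 cells treated with a concentration series. 20 uM Triacsin C defined 100% inhibition.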

[1] = measured here: lipid fluorescence (Fed channel) AC50, cells fed with added oleic acid
[2] = measured here: cell number channel AC50, cells fed with added oleic acid

Structure (SMILES)	cell number change [%]	AC50 [1]	AC50 [2]
CCOc1ccc(-c2nnn(CC(=O)NCc3ccc4c(c3)OCO4)n2)cc1	17.6	10.3 µM [rising, partial curve, poor fit]	–
COc1ccc(C(=O)Nc2ccc3c(c2)OCO3)cc1OC	-12.6	0.13 µM [rising, full curve, poor fit]	–
Cc1ccc(N2C(=O)C3CCC(C)(C2=O)C3(C)C)cc1 (stereo not drawn)	26.5	–	–
COc1ccc(C(=O)NCCc2ccc(F)cc2)cc1OC	-15.3	2.31 µM [rising, single point]	–
CCCCc1nnc(NC(=O)CCc2ccccc2)s1	12.3	–	–
Cc1c(C(=O)OCc2ccc(F)cc2)sc2nc3n(c(=O)c12)CCC3	–	0.082 µM [falling, full curve, poor fit]	0.0731 µM [falling, full curve, poor fit]
Cc1c(NC(=O)C(C)Sc2nc3ccccc3c(=O)n2CCO)c(=O)n(-c2ccccc2)n1C (stereo not drawn)	-12.3	–	–
CN(C)CCCN(C(=O)/C=C/c1cccs1)c1nc2c(F)cccc2s1	-11.4	–	0.00517 µM [falling, full curve, poor fit]
CCOc1ccc(C(=O)N[C@H](C(=O)Nc2ccccc2OC)C(C)C)cc1	37.4	–	6.51 µM [rising, full curve, poor fit]
Fc1ccccc1OCCn1c(=S)[nH]c2ccccc21	-25.5	–	0.291 µM [falling, full curve, poor fit]
CCC(NC(=O)COC(=O)C1CC2CCCC(C1)C2=O)c1ccc(Br)cc1 (stereo not drawn)	-22	–	–
CCOC(=O)c1cnn(-c2ccccc2)c1-n1cccc1C(=O)C(=O)Nc1ccccc1C(F)(F)F	-5.35	29.1 µM [falling, single point]	–
CCCCN(C(=O)c1ccc(-c2ccc(Cl)cc2)o1)c1c(N)n(CC(C)C)c(=O)[nH]c1=O	-54.6	–	13 µM [falling, partial curve]
CC(=O)Oc1ccc2c(c1)C(=O)c1ccccc1CO2	5.45	2.06 µM [falling, partial curve]	0.116 µM [falling, full curve, poor fit]
O=c1[nH]c2ccc(NC(=S)Nc3ccc(Cl)cc3)cc2[nH]1	-41.4	–	29.1 µM [falling, single point]
CC(=O)N1C=Cc2c(c(C)c3c([nH]c4ccccc43)c2C)C1	-40.9	–	–
CC1CN(CN2C(=O)c3ccccc3C2=O)CC(C)O1 (stereo not drawn)	-51.6	–	16.4 µM [falling, single point]
CCn1c(CNC(=O)C2CCCCC2)cc2cc(C)ccc21	–	20.6 µM [rising, partial curve]	–
Cc1cc(OC(=O)c2ccc(C(F)(F)F)cc2)c([N+](=O)[O-])c(=O)[nH]1	6.89	–	–
N#CCc1ccc(NC(=O)/C=C/c2ccc([N+](=O)[O-])o2)cc1	-113	–	29.1 µM [falling, single point]

As a short view, some entries already given:
Structure (SMILES)	cell number change [%]	AC50 [1]	AC50 [2]
COc1ccc(C(=O)NCCc2ccc(F)cc2)cc1OC	-15.3	2.31 µM [rising, single point]	–
CCCCc1nnc(NC(=O)CCc2ccccc2)s1	12.3	–	–
Cc1c(C(=O)OCc2ccc(F)cc2)sc2nc3n(c(=O)c12)CCC3	–	0.082 µM [falling, full curve, poor fit]	0.0731 µM [falling, full curve, poor fit]
Cc1c(NC(=O)C(C)Sc2nc3ccccc3c(=O)n2CCO)c(=O)n(-c2ccccc2)n1C (stereo not drawn)	-12.3	–	–
CN(C)CCCN(C(=O)/C=C/c1cccs1)c1nc2c(F)cccc2s1	-11.4	–	0.00517 µM [falling, full curve, poor fit]
CCOc1ccc(C(=O)N[C@H](C(=O)Nc2ccccc2OC)C(C)C)cc1	37.4	–	6.51 µM [rising, full curve, poor fit]
Fc1ccccc1OCCn1c(=S)[nH]c2ccccc21	-25.5	–	0.291 µM [falling, full curve, poor fit]
CCC(NC(=O)COC(=O)C1CC2CCCC(C1)C2=O)c1ccc(Br)cc1 (stereo not drawn)	-22	–	–
CCOC(=O)c1cnn(-c2ccccc2)c1-n1cccc1C(=O)C(=O)Nc1ccccc1C(F)(F)F	-5.35	29.1 µM [falling, single point]	–
CCCCN(C(=O)c1ccc(-c2ccc(Cl)cc2)o1)c1c(N)n(CC(C)C)c(=O)[nH]c1=O	-54.6	–	13 µM [falling, partial curve]
CC(=O)Oc1ccc2c(c1)C(=O)c1ccccc1CO2	5.45	2.06 µM [falling, partial curve]	0.116 µM [falling, full curve, poor fit]

Carrying on.

Structure (SMILES)	cell number change [%]	AC50 [1]	AC50 [2]
O=C(Nc1cc2c(cc1Br)OCCCO2)c1cccnc1	-0.647	1.46 µM [rising, partial curve, poor fit]	–
COc1ccccc1C(=O)NCC(=O)NCCCN1CCOCC1	16.6	10.3 µM [rising, single point]	–
OC(CNC1CCCC1)COc1ccccc1Br (stereo not drawn)	-36.6	–	25.9 µM [falling, single point]
Cc1nc(SCC(=O)NC(C)(C#N)C2CC2)c2c(-c3cccs3)csc2n1 (stereo not drawn)	-18	29.1 µM [falling, single point]	–
Cc1cc(NS(=O)(=O)c2ccc(NC(=O)CN3C(=O)NC(C)(c4ccccc4)C3=O)cc2)nc(C)n1 (stereo not drawn)	-95.9	5.8 µM [falling, single point]	9.2 µM [falling, single point]
CN(C(=O)COC(=O)CSc1ccc([N+](=O)[O-])cc1)c1ccccc1	4.55	–	–
O=C(Cn1c(=O)c2c(ncn2Cc2ccccc2)n(Cc2ccccc2)c1=O)NC1CC1	1.11	0.517 µM [falling, single point]	0.103 µM [falling, full curve, poor fit]
CC1CCN(C(=O)Cn2nnc(-c3ccccc3)n2)CC1	10.8	0.13 µM [rising, full curve, poor fit]	–
CCN(Cc1ccccc1)S(=O)(=O)c1ccc(C(=O)N(CCCN(C)C)c2nc3cc4c(cc3s2)OCCO4)cc1	34.9	0.651 µM [falling, single point]	–
Cc1ccc(-c2cc(C(=O)Nc3ccc(S(=O)(=O)Nc4ncccn4)cc3)[nH]n2)c(O)c1C	31.7	–	18.4 µM [rising, single point]
CCN1CCN(C(=O)c2cc3c(=O)n(C)c4ccccc4c3n2C)CC1	37.7	–	29.1 µM [rising, single point]
Clc1ccc(Cn2ncc3c(N4CCCCC4)ncnc32)cc1	-24.4	6.51 µM [rising, single point]	–
CC(=O)c1ccc(S(=O)(=O)Nc2cccc(-c3ccc(N4CCOCC4)nn3)c2)cc1	-19.2	–	–
CCOc1ccc(C(=O)NCc2ccc3c(c2)OCO3)cc1OCC	13.5	–	–
CC(=O)Nc1sc(/C(C#N)=C\c2cccc(Cl)c2)nc1-c1ccc(C)cc1	0.569	6.51 µM [falling, partial curve]	–
C/C(=N\NC(=O)c1cccc([N+](=O)[O-])c1)c1cccs1	26.8	–	1.84 µM [rising, full curve, poor fit]
COc1ccc(NS(=O)(=O)c2ccc3oc4ccccc4c3c2)cn1	-44.2	–	29.1 µM [falling, single point]
Cc1ccc(Nc2nc(N)nc(CN3CCN(c4ccccc4F)CC3)n2)cc1	-27.9	14.6 µM [falling, partial curve, poor fit]	–
OCCCNc1c2c(nc3cc(-c4ccc(Cl)cc4)nn13)CCC2	6.32	0.0259 µM [rising, full curve, poor fit]	–
O=C(NCc1ccccc1F)c1cccc(S(=O)(=O)NCc2ccccc2)c1	-16.5	8.2 µM [falling, partial curve, poor fit]	–
